Counter-ions that a name gives are not always drawn. The list shows a part of the results. Single values are uncertain, as repeats are few or missing.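 Three clinical Candida auris isolates (clades III, IV and I) from the CDC resistance isolate bank were grown in RPMI-1640 at 35°C. Growth was background-corrected OD600 relative to same-plate vehicle-only wells. Hits required over 50% inhibition in at least two strains and a plate-corrected B-score above 0.1.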
Legend:
Test in all cases: growth relative to vehicle control (OD600 ratio) (fraction); higher = less inhibition
Settings in all cases: 24 h
C. auris AR-384 = tested on: C. auris AR-384
C. auris AR-386 = tested on: C. auris AR-386
C. auris AR-387 = tested on: C. auris AR-387

SMILES	growth (C. auris AR-384; 1 µM)	growth (C. auris AR-384; 10 µM)	growth (C. auris AR-386; 1 µM)	growth (C. auris AR-386; 10 µM)	growth (C. auris AR-387; 1 µM)	growth (C. auris AR-387; 10 µM)
CO/N=C(\C(=O)N[C@@H]1C(=O)N2C(C(=O)[O-])=C(C[n+]3cccc4c3CCC4)CS[C@H]12)c1csc(N)n1 [Cefpirome sulfate]	0.79	1.17	1.08	1.02	0.93	0.89
CN(CCOc1ccc(NS(C)(=O)=O)cc1)CCc1ccc(NS(C)(=O)=O)cc1 [Dofetilide]	0.75	0.99	0.92	0.74	0.79	0.95
O=C(O)/C=C/c1ccc(Cn2ccnc2)cc1 [Ozagrel]	0.71	0.92	0.62	0.85	0.99	0.98
NC(CO)C(=O)NNCc1ccc(O)c(O)c1O (stereo not given) [Benserazide HCl]	1.09	0.83	1.15	0.95	0.67	0.82
C#CCN[C@@H]1CCc2ccccc21 [Rasagiline Mesylate]	0.69	0.78	0.61	1.05	1.06	0.96
Cc1onc(-c2ccccc2Cl)c1C(=O)N[C@@H]1C(=O)N2[C@@H]1SC(C)(C)[C@@H]2C(=O)O [Cloxacillin Sodium]	1.05	0.57	0.85	0.9	0.69	0.83
COc1cc2c(cc1OC)CC(=O)N(CCCN(C)C[C@H]1Cc3cc(OC)c(OC)cc31)CC2 [Ivabradine HCl]	0.89	0.85	0.82	0.83	1.16	1.13
c1cnc2cc3c(cc2n1)[C@@H]1CNC[C@H]3C1 [Varenicline Tartrate]	0.77	0.7	0.77	0.74	0.88	0.8
OCCN1CCN(CCCN2c3ccccc3Sc3ccc(C(F)(F)F)cc32)CC1 [Fluphenazine dihydrochloride]	0.99	0.92	0.78	0.87	0.77	0.9
CN(C)CC/C=C1/c2ccccc2COc2ccc(CC(=O)O)cc21 [Olopatadine HCl]	0.83	1.16	0.68	1.01	1.11	1.21
O=C(O)c1ccccc1 [Benzoic Acid]	0.78	0.77	0.69	0.7	0.76	0.72
CC1(COc2ccc3c(c2)ncn3-c2ccc3cccc(N4CCC(N)CC4)c3n2)COC1	0.67	0.89	0.8	0.91	0.93	0.85
O=C(c1ccc(F)c(F)c1Nc1ccc(I)cc1F)N1CC(O)([C@@H]2CCCCN2)C1 [Cobimetinib (GDC-0973, RG7420)]	1.39	1.26	0.99	1.03	1.04	1.03
CC[C@H](C)[C@H](NC(=O)[C@H](Cc1ccccc1)NC(=O)[C@H](CCC(=O)O)NC(=O)[C@H](CCCCN)NC(=O)[C@H](C)NC(=O)[C@H](C)NC(=O)[C@H](CCC(N)=O)NC(=O)CNC(=O)[C@H](CCC(=O)O)NC(=O)[C@H](CC(C)C)NC(=O)[C@H](Cc1ccc(O)cc1)NC(=O)[C@H](CO)NC(=O)[C@H](CO)NC(=O)[C@@H](NC(=O)[C@H](CC(=O)O)NC(=O)[C@H](CO)NC(=O)[C@@H](NC(=O)[C@H](Cc1ccccc1)NC(=O)[C@@H](NC(=O)CNC(=O)[C@H](CCC(=O)O)NC(=O)CNC(=O)[C@@H](N)Cc1c[nH]cn1)[C@@H](C)O)[C@@H](C)O)C(C)C)C(=O)N[C@@H](C)C(=O)N[C@@H](Cc1c[nH]c2ccccc12)C(=O)N[C@@H](CC(C)C)C(=O)N[C@H](C(=O)N[C@@H](CCCCN)C(=O)NCC(=O)N[C@@H](CCCNC(=N)N)C(=O)O)C(C)C [Albiglutide]	0.54	0.6	0.87	0.72	0.68	0.74
CC(C)NCC(O)c1ccc(O)c(O)c1 (stereo not given) [Isoprenaline HCl]	0.81	0.74	1.21	1.27	0.99	1.2
CN(CCOc1ccc(CC2SC(=O)NC2=O)cc1)c1ccccn1 (stereo not given) [Rosiglitazone]	0.78	1.22	0.99	1.16	1.17	1.13
C#C[C@]1(O)CC[C@H]2[C@@H]3CCc4cc(OC)ccc4[C@H]3CC[C@@]21C [Mestranol]	0.89	0.99	0.98	0.77	0.64	0.61
COC(=O)C1=C(C)NC(C)=C(C(=O)OC(C)(C)CN(C)CCC(c2ccccc2)c2ccccc2)C1c1cccc([N+](=O)[O-])c1 (stereo not given) [Lercanidipine hydrochloride]	0.98	0.83	0.83	0.52	1	0.63
CCCCCCCCc1ccc(CCC(N)(CO)CO)cc1 [Fingolimod (FTY720) HCl]	1.16	0.66	0.85	0.58	0.8	0.88
Cc1c(F)cc(C(=O)NC2CC2)cc1-c1ccc(C(=O)NCC(C)(C)C)cn1	1.04	1.44	1.05	1.15	1.03	1.28
O=S(=O)(O)CCSSCCS(=O)(=O)O [Dimesna]	1.05	1.31	1.33	1.12	0.91	0.95
Nc1c(CC(=O)O)cccc1C(=O)c1ccccc1 [Amfenac Sodium Monohydrate]	0.78	0.7	0.51	0.65	0.63	0.92
CC(=O)Oc1cc(C(F)(F)F)ccc1C(=O)O [Triflusal]	0.87	0.94	0.68	1.09	0.84	0.72
O=C(O)c1cn(-c2ccc(F)cc2)c2cc(N3CCNCC3)c(F)cc2c1=O [Sarafloxacin HCl]	0.96	0.67	0.9	1	0.93	0.75
CO[C@H]1C[C@@H]2CC[C@@H](C)[C@@](O)(O2)C(=O)C(=O)N2CCCC[C@H]2C(=O)O[C@H]([C@H](C)C[C@@H]2CC[C@@H](O)[C@H](OC)C2)CC(=O)[C@H](C)/C=C(\C)[C@@H](O)[C@@H](OC)C(=O)[C@H](C)C[C@H](C)/C=C/C=C/C=C/1C [Rapamycin (Sirolimus)]	0.16	0.09	0.04	0.12	0.08	0.08
CN1C(C(=O)Nc2ccccn2)=C(O)c2ccccc2S1(=O)=O [Piroxicam]	1.32	0.92	1.05	0.73	0.66	0.75
C#Cc1cccc(Nc2ncnc3cc(OCCOC)c(OCCOC)cc23)c1 [Erlotinib HCl (OSI-744)]	0.73	0.55	0.73	0.65	0.8	0.82
CC1(C)CCC(c2ccc(Cl)cc2)=C(CN2CCN(c3ccc(C(=O)NS(=O)(=O)c4ccc(N[C@H](CCN5CCOCC5)CSc5ccccc5)c(S(=O)(=O)C(F)(F)F)c4)cc3)CC2)C1 [Navitoclax (ABT-263)]	1.27	1	0.69	1.19	0.91	1.09
CC[C@H]1OC(=O)C[C@@H](O)[C@H](C)[C@@H](O[C@@H]2O[C@H](C)[C@@H](O[C@H]3C[C@@](C)(O)[C@@H](O)[C@H](C)O3)[C@H](N(C)C)[C@H]2O)[C@@H](CC=O)C[C@@H](C)C(=O)/C=C/C(C)=C/[C@@H]1CO[C@@H]1O[C@H](C)[C@@H](O)[C@@H](OC)[C@H]1OC [Tylosin tartrate]	0.69	0.99	1.14	1.01	0.98	0.61
CC1=C(C(=O)OC(C)C)C(c2cccc([N+](=O)[O-])c2)C(C(=O)OC2CN(C(c3ccccc3)c3ccccc3)C2)=C(N)N1 (stereo not given) [Azelnidipine]	0.78	0.85	0.7	0.79	0.89	1.09

A different layout for some results above.
SMILES | growth (C. auris AR-384; 1 µM) | growth (C. auris AR-384; 10 µM) | growth (C. auris AR-386; 1 µM) | growth (C. auris AR-386; 10 µM) | growth (C. auris AR-387; 1 µM) | growth (C. auris AR-387; 10 µM)
CC1(COc2ccc3c(c2)ncn3-c2ccc3cccc(N4CCC(N)CC4)c3n2)COC1 | 0.67 | 0.89 | 0.8 | 0.91 | 0.93 | 0.85
O=C(c1ccc(F)c(F)c1Nc1ccc(I)cc1F)N1CC(O)([C@@H]2CCCCN2)C1 [Cobimetinib (GDC-0973, RG7420)] | 1.39 | 1.26 | 0.99 | 1.03 | 1.04 | 1.03

From the supplement of paper PMC10470496
